These are yes or no findings as the source states them, for the method shown. In cells and extracts the contact can be indirect. Binding calls can cover weak binding; strength is not graded here.
What was measured:
Experiment in all cases: pull-down; SBP-tagged protein transfected into C4-2 or PC3 cells, H2O2 for 2 min, free thiols blocked with 20 mM MMTS, lysate on SA-Sepharose beads, washes with 1 % Triton X-100 and 1 M urea, elution with biotin, non-reducing immunoblotting (disulfide-linked conjugates)
[1] = biological target: SBP-HJURP with Cys327 mutation (UniProt Q8NCD3)
[2] = biological target: SBP-HJURP with Cys348 mutation (UniProt Q8NCD3)
[3] = biological target: SBP-HJURP with Cys457 mutation (UniProt Q8NCD3)
[4] = biological target: SBP-HJURP with Cys646 mutation (UniProt Q8NCD3)

Chains of the proteins cited; added tags and fusions are not shown. Lines headed by an entry give the natural chain unless they say otherwise; changes in a name come on top.
UniProt Q8NCD3: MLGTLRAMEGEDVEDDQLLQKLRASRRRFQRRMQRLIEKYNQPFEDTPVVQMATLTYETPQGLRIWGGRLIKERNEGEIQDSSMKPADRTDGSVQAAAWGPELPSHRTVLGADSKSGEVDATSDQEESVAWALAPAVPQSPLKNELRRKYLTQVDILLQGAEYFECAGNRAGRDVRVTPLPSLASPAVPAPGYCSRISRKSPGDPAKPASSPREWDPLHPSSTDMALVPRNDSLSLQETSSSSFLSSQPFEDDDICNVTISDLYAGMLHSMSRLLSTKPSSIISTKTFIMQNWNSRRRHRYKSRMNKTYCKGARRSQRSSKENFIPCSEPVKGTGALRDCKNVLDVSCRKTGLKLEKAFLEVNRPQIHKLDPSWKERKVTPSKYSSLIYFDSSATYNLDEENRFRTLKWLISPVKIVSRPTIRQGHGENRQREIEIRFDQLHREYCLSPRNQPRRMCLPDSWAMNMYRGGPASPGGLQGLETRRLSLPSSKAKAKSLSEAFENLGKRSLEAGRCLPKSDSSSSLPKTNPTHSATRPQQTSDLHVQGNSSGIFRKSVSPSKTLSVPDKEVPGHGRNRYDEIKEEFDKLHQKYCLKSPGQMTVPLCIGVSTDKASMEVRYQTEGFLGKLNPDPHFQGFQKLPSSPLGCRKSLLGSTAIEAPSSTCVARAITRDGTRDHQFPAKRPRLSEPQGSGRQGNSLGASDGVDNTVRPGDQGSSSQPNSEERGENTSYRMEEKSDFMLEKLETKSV

Measured: binding

B1: peroxiredoxin 1 (PRDX1) (enzyme, UniProt Q06830 1-199)
chain: MSSGNAKIGHPAPNFKATAVMPDGQFKDISLSDYKGKYVVFFFYPLDFTFVCPTEIIAFSDRAEEFKKLNCQVIGASVDSHFCHLAWVNTPKKQGGLGPMNIPLVSDPKRTIAQDYGVLKADEGISFRGLFIIDDKGILRQITVNDLPVGRSVDETLRLVQAFQFTDKHGEVCPAGWKPGSDTIKPDVQKSKEYFSKQK
binds: all assays above
